Test results published in article PMC4698393.
The exact form of at least one protein or probe is not confirmed. For some of these results: No signal at the amounts used counts as a negative.

Legend:
GST-Nrf2 + His-MafG [1] = assay: EMSA; conditions: dose-dependent increase with GST-Nrf2; EMSA binding buffer as previously described (ref 21; composition, salt and pH not given); Nrf2/MafG preincubated 30 min at room temperature; recombinant protein; protein details: GST (N-term, pGEX5x-1),His
GST-Nrf2 = assay: EMSA; conditions: Nrf2 alone; EMSA binding buffer as previously described (ref 21; composition, salt and pH not given); Nrf2/MafG preincubated 30 min at room temperature; recombinant protein; protein details: GST (N-term, pGEX5x-1)
His-MafG = assay: EMSA; conditions: MafG alone (homodimer); EMSA binding buffer as previously described (ref 21; composition, salt and pH not given); Nrf2/MafG preincubated 30 min at room temperature; recombinant protein; protein details: His
GST-Nrf2 + His-MafG [2] = assay: competition with a labelled probe; conditions: excess cold HepcARE diminished binding to labeled HepcARE; EMSA binding buffer as previously described (ref 21; composition, salt and pH not given); Nrf2/MafG preincubated 30 min at room temperature; recombinant protein; protein details: GST (N-term, pGEX5x-1),His

Does “CTAGCGAATTCAACATCCCCGGGCTCTGGTGACTTGGCTGACACTGC / TCGAGCAGTGTCAGCCAAGTCACCAGAGCCCGGGGATGTTGAATTCG [HepcARE]” bind (GST-Nrf2 + His-MafG [1])?
Result: binds

Does “CTAGCGAATTCAACATCCCCGGGCTCTGGTGACTTGGCTGACACTGC / TCGAGCAGTGTCAGCCAAGTCACCAGAGCCCGGGGATGTTGAATTCG [HepcARE]” bind (GST-Nrf2)?
Result: no binding

Does “CTAGCGAATTCAACATCCCCGGGCTCTGGTGACTTGGCTGACACTGC / TCGAGCAGTGTCAGCCAAGTCACCAGAGCCCGGGGATGTTGAATTCG [HepcARE]” bind (His-MafG)?
Result: binds

Does “CTAGCGAATTCAACATCCCCGGGCTCTGGTGACTTGGCTGACACTGC / TCGAGCAGTGTCAGCCAAGTCACCAGAGCCCGGGGATGTTGAATTCG [HepcARE]” bind (GST-Nrf2 + His-MafG [2])?
Result: binds
